Results as given in the supplement of paper PMC3334620.
The full ranking holds about 33,000 sequences; the median of “E-score (-0.5 to 0.5)” is about -0.0014, and the highest 2% start at about 0.25. This is one part of the list.

Target: T1, Cad1 (UniProt P24813)
T1 sequence: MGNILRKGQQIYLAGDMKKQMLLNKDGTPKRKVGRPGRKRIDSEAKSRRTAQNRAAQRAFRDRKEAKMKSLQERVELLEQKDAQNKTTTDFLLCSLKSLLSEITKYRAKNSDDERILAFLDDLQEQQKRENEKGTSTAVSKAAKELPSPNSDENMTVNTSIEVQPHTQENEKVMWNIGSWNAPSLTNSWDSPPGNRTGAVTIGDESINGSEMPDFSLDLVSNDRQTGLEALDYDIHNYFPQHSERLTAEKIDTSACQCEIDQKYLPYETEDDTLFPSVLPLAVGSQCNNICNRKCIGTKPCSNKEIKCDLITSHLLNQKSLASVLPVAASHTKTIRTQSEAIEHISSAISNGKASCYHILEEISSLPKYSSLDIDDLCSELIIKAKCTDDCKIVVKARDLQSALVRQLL
Experiment: PBM E-score (8-mer binding enrichment) (E-score (-0.5 to 0.5)); higher = stronger / more preferred TF binding
Settings: protein concentration: 100 nM; construct: GST-full length
In short: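 Each ungapped eight-base word and its reverse complement, pooled, received an E-score from the Universal PBM Analysis Suite. Underlying scans, normalised with masliner, recorded fluorescent anti-GST bound to GST-tagged yeast transcription factors. These were applied at about 100-200 nM to universal all-10-mer Agilent arrays double-stranded by primer extension.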

Sequence	PBM E-score
GCCGTCGA	0.174
TCACCCAA	0.0405
ACCTGAAC	-0.116
GCTGATCC	0.0438
AGTCCATG	-0.137
CGGTACAA	0.0609
AAAATATC	0.198
AGAATAAC	0.0467
GTAGAGAA	0.0517
AGCTCCCA	-0.195
ATTACTGC	0.203
CACGGTCC	-0.365
CCACTTCA	-0.152
ACCGTGCA	0.117
AACATCTA	-0.15
CCAGAATA	0.138
AAAAACTC	0.12
CCAACTAA	0.0925
GATTCTGC	0.0858
GTGGTAAA	0.126
CAGATTCA	-0.182
ACCCTTCC	-0.181
ATTGAAAA	0.224
ATCCCGAT	0.0794
GCTAATTA	0.306

Sequence	PBM E-score
GCGATCGA	0.248
ATCAAACG	0.139
ACTTCGGC	-0.0559
TCATACGA	0.0873
CTTTCATC	0.0102
GAGCTGAC	0.239
CGCGGCCC	-0.0151
GCCTTAAA	0.133
ACATGTGG	0.114
AAGTTGGA	-0.127
CGGAAGAC	0.146
CTTTAGCA	-0.122
ACCCATGG	-0.148
CGATATTA	0.352
CCATGAGG	-0.238
GCAGAAAA	0.123
CGTTAGGA	0.0257
CGGTTTAA	-0.119
CACTATTA	0.131
CATCAGAC	-0.00947
ACGCCCAT	-0.0524
CCAAGCAA	0.0285
CACGTGCC	0.0711
CTGTTTCC	-0.117
AGTTAGAG	-0.126

Sequence	PBM E-score
AATGATCC	-0.0772
AGAACAAG	0.173
AAGTAGCT	-0.0432
GTTGTATA	0.11
AAGAGGCA	-0.116
ACGTGTGC	-0.212
AAAGTCGG	-0.0977
AGAATTGA	-0.0421
GTTAGTGA	-0.0153
CTGCGACC	-0.106
AACGCCGA	0.0975
TTATCCAA	0.189
GACGGAAC	0.0293
AGCAGTGG	-0.0575
AGGTCTGA	0.0845
AGAAAAAT	0.133
ACTCGAGG	0.107
CCTTGCCG	-0.0655
GACAGCGC	0.14
AGCGGAAC	0.144
CTAGCTTA	0.135
ATAGCGGA	-0.102
GGACAATA	0.161
ACTATAAT	0.0905
CACTATGA	-0.0728

Sequence	PBM E-score
CCCAACAC	-0.18
ACGTTGCG	0.199
CCACAAAA	0.0925
AGGAAATC	-0.0121
AAATCATC	-0.0859
GCCATAGC	-0.01
CCTGTAAC	0.0235
AGACTCTG	-0.0309
AAAAATGT	0.0351
GTCAGAAC	-0.0296
CAATATCA	0.0979
CAGCGGAA	0.0922
AGGTTACT	-0.0566
CACCCCGG	-0.344
GAAGACGC	-0.0488
AATCACAC	0.0391
GGAGTTAC	-0.0248
GACGATTA	0.14
CCGACCCG	0.0539
CCGGGTGC	-0.053
CAAATGTA	0.219
CTATCTTA	0.0111
GCTAAATA	0.156
CTCAACAG	0.0205
CCCTGATC	-0.18

An excerpt of these results, as labelled records:
ACGCCCAT
  PBM E-score: -0.0524
AACGCCGA
  PBM E-score: 0.0975

The results go on:

Sequence	PBM E-score
CTGTCATA	0.15
ACCGGTCG	-0.118
CGAGAAGC	-0.182
CCCATCAC	0.0107
ATCACAGC	0.0755
AATGGGCC	-0.231
CCTGCTAC	0.0146
ACAGAACA	0.0452
ACTCCGCA	-0.0105
CCATGGCA	0.0272
TAGGCGCA	0.0403
GAAACAGC	-0.0737
CCGCTAAC	-0.00623
GCGGAGTA	0.0675
ACCCGGGA	-0.0703
CACAATCG	0.0785
CCCGTCTA	-0.121
ACAGACCG	-0.126
ACACATCA	-0.151
GAGGGGAC	-0.0993
CGATTAAC	-0.0107
CATTACCG	0.0345
ACTTAAGT	0.212
ATTGTGCG	0.0629
ACAGAGCG	-0.112

Some of the entries so far, with bars between the fields:
Sequence | PBM E-score
ACTCCGCA | -0.0105
CCATGGCA | 0.0272
TAGGCGCA | 0.0403
GAAACAGC | -0.0737

Part of the list above in another layout:
Sequence,PBM E-score
ACTTAAGT,0.212
ATTGTGCG,0.0629

(listing goes on)

Sequence	PBM E-score
TCTGGACA	0.0422
ACTGTCTC	-0.0617
CATGAGTA	-0.0686
AGGATTCG	0.018
AGCTTCGA	-0.12
ATGGTGCG	0.0364
ACGGCCCT	-0.0728
CTAAGCTC	-0.0394
CACTTAAG	0.0974
GAGTTTGC	-0.123
GCACGCCC	-0.00875
GCCCATGA	0.0588
GGTCCTCA	-0.0754
AATCATGT	0.235
ATGCCTTA	-0.158
ATATTTGA	0.0318
AGTCACCA	-0.113
AATGGCAG	-0.0159
ACATAACA	0.273
AGGTGACA	0.155
CGCTACCG	-0.00025
GGTCTCTA	-0.17
AGCATAGC	-0.108
GGAGTAAC	-0.0257
AGCGATCA	-0.00831

Sequence	PBM E-score
CAGCGCGA	0.00691
CATGGGGG	-0.271
TGCCGGCA	0.148
AAAGCAGG	-0.0901
GCATCCCA	-0.303
GGTTGGTA	0.101
CTATGATA	0.0824
CAGCTCTA	-0.206
GCCCCGAA	-1e-05
TACTGAGA	-0.037
ACTTCTTA	0.0763
AAACGGGA	0.0625
AAGCTCCT	-0.289
AAAAATCG	-0.00417
GTGCAGGA	-0.057
AAGTTCCG	0.0348
CCAATTTA	0.193
CTTCCCCA	-0.11
AGAATGGA	0.091
ATTGCCGA	0.027
AGCCTGCA	-0.0129
CTATATAG	0.0376
